# From the supplement of paper PMC4604168 (melanoma cell lines)
# The other results are listed elsewhere or left out. Single values are uncertain, as repeats are few or missing.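 The apoptosis fraction was the count of cleaved-PARP antibody-stained nuclei relative to all DNA-stained nuclei, imaged in 1,536-well plates. Screening doses were set so most cells survived, and baseline and induced cleaved-PARP levels vary greatly across cell lines.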
# Assays:
# Assay in all cases: cleaved PARP positive nuclei fraction relative to DMSO control; melanoma cells; higher = more apoptosis
# Details in all cases: library dose: low library concentration; 72 h
# MZ2-MEL = test system: MZ2-MEL
# MeWo = test system: MeWo
# RPMI7951 = test system: RPMI7951
# RVH-421 = test system: RVH-421
# SkMel28 = test system: SkMel28
# SkMel2 = test system: SkMel2
# SkMel30 = test system: SkMel30
# SkMel5 = test system: SkMel5
# UACC257 = test system: UACC257
# UACC62 = test system: UACC62
# WM115 = test system: WM115
# WM1716 = test system: WM1716
# WM1745 = test system: WM1745
# WM3526 = test system: WM3526
# WM3619 = test system: WM3619
# WM451Lu = test system: WM451Lu
SMILES,cleaved PARP positive nuclei fraction (MZ2-MEL),cleaved PARP positive nuclei fraction (MeWo),cleaved PARP positive nuclei fraction (RPMI7951),cleaved PARP positive nuclei fraction (RVH-421),cleaved PARP positive nuclei fraction (SkMel28),cleaved PARP positive nuclei fraction (SkMel2),cleaved PARP positive nuclei fraction (SkMel30),cleaved PARP positive nuclei fraction (SkMel5),cleaved PARP positive nuclei fraction (UACC257),cleaved PARP positive nuclei fraction (UACC62),cleaved PARP positive nuclei fraction (WM115),cleaved PARP positive nuclei fraction (WM1716),cleaved PARP positive nuclei fraction (WM1745),cleaved PARP positive nuclei fraction (WM3526),cleaved PARP positive nuclei fraction (WM3619),cleaved PARP positive nuclei fraction (WM451Lu)
"CS(=O)(=O)CCNCc1ccc(-c2ccc3ncnc(Nc4ccc(OCc5cccc(F)c5)c(Cl)c4)c3c2)o1 [lapatinib] + COc1cc2c(Oc3ccc4[nH]c(C)cc4c3F)ncnc2cc1OCCCN1CCCC1 [cediranib] (first compound 0.8 µM, partner dose 0.4 µM)",117%,116%,107%,27.6%,93.4%,111%,69.2%,41.1%,57.7%,120%,124%,132%,97.3%,67.8%,82.1%,212%
"C[C@@H](Oc1cc(-c2cnn(C3CCNCC3)c2)cnc1N)c1c(Cl)ccc(F)c1Cl [Crizotinib] + CO[C@@H]1[C@H](N(C)C(=O)c2ccccc2)C[C@H]2O[C@]1(C)n1c3ccccc3c3c4c(c5c6ccccc6n2c5c31)C(=O)NC4 [Midostaurin] (first compound 0.2 µM, partner dose 0.08 µM)",89.4%,157%,79.1%,46.5%,171%,132%,116%,71.5%,107%,59.9%,116%,142%,111%,62.7%,217%,49.7%
"CS(=O)(=O)CCNCc1ccc(-c2ccc3ncnc(Nc4ccc(OCc5cccc(F)c5)c(Cl)c4)c3c2)o1 [lapatinib] + Cc1cc([N+](=O)[O-])ccc1NS(=O)(=O)c1cc(Cl)ccc1Cl [FH535] (first compound 0.8 µM, partner dose 1 µM)",203%,129%,224%,79.3%,90%,39.2%,39.9%,82.9%,79.8%,194%,474%,36.2%,107%,53.4%,104%,62.6%
"O=C(O)[C@@H]1[O][Sb](=[O])([O][Sb]2(=[O])[O][C@H]([C@H](O)CO)[C@H](O)[C@H](C(=O)O)[O]2)[O][C@H]([C@H](O)CO)[C@@H]1O (stereo partly drawn) [stibogluconate] + COc1ccc(COc2ccc(Cc3cnc(N)nc3N)cc2OC)cc1 [GW2580] (first compound 2 µM, partner dose 1 µM)",145%,25.9%,30.7%,153%,105%,95%,33.7%,70.1%,229%,86.4%,70.8%,167%,91.6%,57.2%,80.2%,32.5%
"Nc1nc(F)nc2c1ncn2[C@@H]1O[C@H](CO)[C@@H](O)[C@@H]1O [fludarabine] + COc1cc(N2CCC(N3CCN(C)CC3)CC2)ccc1Nc1ncc(Cl)c(Nc2ccccc2S(=O)(=O)C(C)C)n1 [NVP-TAE684] (first compound 0.2 µM, partner dose 0.08 µM)",73.6%,874%,76.9%,52.4%,346%,512%,458%,154%,55.6%,41.4%,109%,86.1%,294%,815%,108%,320%
"CN1CCN(c2ccc3nc(-c4c(N)c5c(F)cccc5[nH]c4=O)[nH]c3c2)CC1 [Dovitinib] + COc1cc2ncnc(Nc3ccc(Oc4ccccc4)cc3)c2cc1OC [SrcI1] (first compound 0.1 µM, partner dose 2 µM)",154%,140%,58.3%,167%,196%,40.9%,37.4%,85.2%,31.6%,66.9%,93.2%,160%,92.3%,73.5%,72.4%,68.9%
"Cn1c(=O)n(-c2ccc(C(C)(C)C#N)cc2)c2c3cc(-c4cnc5ccccc5c4)ccc3ncc21 + O=C(O)c1ccc(-c2c[nH]c3ncc(-c4ccccc4)cc23)cc1C1CCCC1 [GSK650394] (first compound 0.004 µM, partner dose 0.16 µM)",221%,63.7%,72.3%,30.8%,366%,130%,70.9%,30.7%,97%,258%,41.9%,90.4%,98.5%,181%,114%,182%
"C[C@@H](Oc1cc(-c2cnn(C3CCNCC3)c2)cnc1N)c1c(Cl)ccc(F)c1Cl [Crizotinib] + Cn1cncc1[C@@](N)(c1ccc(Cl)cc1)c1ccc2c(c1)c(-c1cccc(Cl)c1)cc(=O)n2C [tipifarnib] (first compound 0.2 µM, partner dose 0.01 µM)",78.8%,34.8%,47.9%,75.4%,45.9%,114%,69.4%,37.8%,149%,142%,166%,125%,110%,73.9%,98%,67.5%
"O=C(O)[C@@H]1[O][Sb](=[O])([O][Sb]2(=[O])[O][C@H]([C@H](O)CO)[C@H](O)[C@H](C(=O)O)[O]2)[O][C@H]([C@H](O)CO)[C@@H]1O (stereo partly drawn) [stibogluconate] + C=CCn1c(=O)c2cnc(Nc3ccc(N4CCN(C)CC4)cc3)nc2n1-c1cccc(C(C)(C)O)n1 [MK1775] (first compound 2 µM, partner dose 0.02 µM)",49.6%,223%,39.6%,50.4%,144%,121%,69.8%,35%,169%,230%,158%,221%,160%,21.8%,108%,23.3%
"C[C@@H](Oc1cc(-c2cnn(C3CCNCC3)c2)cnc1N)c1c(Cl)ccc(F)c1Cl [Crizotinib] + NCC(=O)Nc1ccc(-n2nc(C(F)(F)F)cc2-c2ccc3c(ccc4ccccc43)c2)cc1 [OSU03012] (first compound 0.2 µM, partner dose 1 µM)",60.8%,71.2%,131%,65.5%,101%,215%,210%,226%,113%,104%,116%,66.6%,97.3%,107%,81.6%,68.5%
"Cn1c(=O)n(-c2ccc(C(C)(C)C#N)cc2)c2c3cc(-c4cnc5ccccc5c4)ccc3ncc21 + CCc1ccc(CCOc2ccc(CC3SC(=O)NC3=O)cc2)nc1 [pioglitazone] (first compound 0.004 µM, partner dose 2 µM)",26.2%,90.8%,124%,92.2%,372%,48.4%,46.2%,62.8%,298%,78.5%,75.5%,64.5%,81.5%,88.8%,90.6%,155%
"CS(=O)(=O)CCNCc1ccc(-c2ccc3ncnc(Nc4ccc(OCc5cccc(F)c5)c(Cl)c4)c3c2)o1 [lapatinib] + CC1(C)NC(=O)N(c2ccc([N+](=O)[O-])c(C(F)(F)F)c2)C1=O [nilutamide] (first compound 0.8 µM, partner dose 1 µM)",27.2%,87.3%,106%,38.5%,39.4%,263%,52.2%,35.4%,29%,54.5%,32.6%,80.2%,95.6%,125%,182%,26%
"C[C@@H](Oc1cc(-c2cnn(C3CCNCC3)c2)cnc1N)c1c(Cl)ccc(F)c1Cl [Crizotinib] + CCCCCCCCCCCC1=C(O)C(=O)C=C(O)C1=O [Embelin] (first compound 0.2 µM, partner dose 1.2 µM)",40%,82.6%,124%,68.5%,118%,90%,72.3%,69.1%,234%,79.3%,216%,90.9%,82.6%,131%,91.5%,41.2%
"Cn1c(=O)n(-c2ccc(C(C)(C)C#N)cc2)c2c3cc(-c4cnc5ccccc5c4)ccc3ncc21 + CCCCCCCCCCCC1=C(O)C(=O)C=C(O)C1=O [Embelin] (first compound 0.004 µM, partner dose 1.2 µM)",129%,63.4%,73.3%,85.9%,181%,114%,123%,79.2%,366%,176%,203%,54.3%,89.7%,177%,107%,147%
"Cc1cc(Nc2cc(N3CCN(C)CC3)nc(/C=C/c3ccccc3)n2)n[nH]1 + COc1ccc(-c2ccc3c(N4CCOCC4)nc(N4C[C@@H](C)O[C@@H](C)C4)nc3n2)cc1CO [KU0063794] (first compound 0.04 µM, partner dose 0.02 µM)",154%,220%,41.3%,82.2%,271%,44.9%,42%,84.7%,83.8%,106%,237%,58.2%,99.4%,78.4%,112%,65.5%
"CS(=O)(=O)CCNCc1ccc(-c2ccc3ncnc(Nc4ccc(OCc5cccc(F)c5)c(Cl)c4)c3c2)o1 [lapatinib] + N#Cc1c(O)c2c(-c3ccc(-c4ccccc4O)cc3)csc2[nH]c1=O [A769662] (first compound 0.8 µM, partner dose 2 µM)",183%,130%,213%,53.1%,143%,152%,125%,124%,133%,103%,67.7%,29.2%,73.3%,255%,71.6%,103%
"C[C@@H](Oc1cc(-c2cnn(C3CCNCC3)c2)cnc1N)c1c(Cl)ccc(F)c1Cl [Crizotinib] + Cc1cc(N2CCOCC2)cc2[nH]c(-c3c(NC[C@@H](O)c4cccc(Cl)c4)cc[nH]c3=O)nc12 [BMS536924] (first compound 0.2 µM, partner dose 0.2 µM)",222%,217%,47.6%,121%,57.3%,62.9%,75.5%,141%,132%,79.5%,129%,125%,146%,63%,74.2%,76.9%
"C=C(c1ccc(C(=O)O)cc1)c1cc2c(cc1C)C(C)(C)CCC2(C)C [Bexarotene] + O=C(O)C(=O)Nc1sc2c(c1C(=O)O)CCNC2 [TCS401] (first compound 2 µM, partner dose 1.66667 µM)",60.7%,32.4%,34.5%,134%,139%,58.4%,212%,45.5%,95.8%,114%,69.2%,109%,97.6%,47%,39.8%,80.1%

# No new results follow: entries from further up.
SMILES,cleaved PARP positive nuclei fraction (MZ2-MEL),cleaved PARP positive nuclei fraction (MeWo),cleaved PARP positive nuclei fraction (RPMI7951),cleaved PARP positive nuclei fraction (RVH-421),cleaved PARP positive nuclei fraction (SkMel28),cleaved PARP positive nuclei fraction (SkMel2),cleaved PARP positive nuclei fraction (SkMel30),cleaved PARP positive nuclei fraction (SkMel5),cleaved PARP positive nuclei fraction (UACC257),cleaved PARP positive nuclei fraction (UACC62),cleaved PARP positive nuclei fraction (WM115),cleaved PARP positive nuclei fraction (WM1716),cleaved PARP positive nuclei fraction (WM1745),cleaved PARP positive nuclei fraction (WM3526),cleaved PARP positive nuclei fraction (WM3619),cleaved PARP positive nuclei fraction (WM451Lu)
"C[C@@H](Oc1cc(-c2cnn(C3CCNCC3)c2)cnc1N)c1c(Cl)ccc(F)c1Cl [Crizotinib] + CCCCCCCCCCCC1=C(O)C(=O)C=C(O)C1=O [Embelin] (first compound 0.2 µM, partner dose 1.2 µM)",40%,82.6%,124%,68.5%,118%,90%,72.3%,69.1%,234%,79.3%,216%,90.9%,82.6%,131%,91.5%,41.2%
"Cn1c(=O)n(-c2ccc(C(C)(C)C#N)cc2)c2c3cc(-c4cnc5ccccc5c4)ccc3ncc21 + CCCCCCCCCCCC1=C(O)C(=O)C=C(O)C1=O [Embelin] (first compound 0.004 µM, partner dose 1.2 µM)",129%,63.4%,73.3%,85.9%,181%,114%,123%,79.2%,366%,176%,203%,54.3%,89.7%,177%,107%,147%
"Cc1cc(Nc2cc(N3CCN(C)CC3)nc(/C=C/c3ccccc3)n2)n[nH]1 + COc1ccc(-c2ccc3c(N4CCOCC4)nc(N4C[C@@H](C)O[C@@H](C)C4)nc3n2)cc1CO [KU0063794] (first compound 0.04 µM, partner dose 0.02 µM)",154%,220%,41.3%,82.2%,271%,44.9%,42%,84.7%,83.8%,106%,237%,58.2%,99.4%,78.4%,112%,65.5%
"CS(=O)(=O)CCNCc1ccc(-c2ccc3ncnc(Nc4ccc(OCc5cccc(F)c5)c(Cl)c4)c3c2)o1 [lapatinib] + N#Cc1c(O)c2c(-c3ccc(-c4ccccc4O)cc3)csc2[nH]c1=O [A769662] (first compound 0.8 µM, partner dose 2 µM)",183%,130%,213%,53.1%,143%,152%,125%,124%,133%,103%,67.7%,29.2%,73.3%,255%,71.6%,103%
